Assay results: the supplement of paper PMC11732987, “Enantioselective OTUD7B fragment discovery through chemoproteomics screening and high-throughput optimisation” (Communications Chemistry, 2025)
The list shows a part of the results. The data scatter; read single values as rough.

Legend:
[1] = compound: ClCC(=O)N[C@@H]1CCCc2ccccc12; test: log2 mean competition ratio of IA-DTB cysteine labelling (DMSO/compound) (log2 ratio); higher = stronger cysteine engagement by compound; conditions: treatment time: 4 h, cell line lysate: HEK293T
Description: (§1)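 IA-DTB competitive cysteine chemoproteomics in HEK293T RIPA lysate. Lysates were treated with compound 29 or 30 at 50 or 200 µM for 4 h, then IA-DTB (500 µM, 1 h), trypsin-digested, NeutrAvidin-enriched and analysed by diaPASEF. Competition ratio = intensity DMSO / intensity compound (n=4 treated, n=64 DMSO); binding: mean log2 CR ≥ 1 and p ≤ 0.05 plus QC filters. Target is the cysteine site.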

[2] = compound: ClCC(=O)N[C@H]1CCCc2ccccc12; test: as above; conditions: treatment time: 4 h, cell line lysate: HEK293T
Description: as §1

Target	log2 mean competition ratio ([1]; 50 µM)	log2 mean competition ratio ([1]; 200 µM)	log2 mean competition ratio ([2]; 50 µM)	log2 mean competition ratio ([2]; 200 µM)
RECQL5 C457 (UniProt O94762)	-0.0255	0.19	-0.162	0.353
RETSAT C534 (UniProt Q6NUM9)	0.346	0.344	0.186	0.176
RLF C663 (UniProt Q13129)	0.0857	-0.0166	-0.033	-0.0901
RMDN3 C128 (UniProt Q96TC7)	0.031	-0.00177	-0.162	0.0392
RCC1 C93 (UniProt P18754)	-0.215	-0.142	0.0678	-0.038
RICTOR C218 (UniProt Q6R327)	0.0502	-0.474	-0.124	-0.297
RCCD1 C42 (UniProt A6NED2)	-0.288	0.049	-0.403	0.0922
RGL2 C508 (UniProt O15211)	-0.169	-0.204	0.188	-0.413
RARS1 C312	-0.149	-0.154	0.531	0.112
RELL1 C88 (UniProt Q8IUW5)	-0.0195	-0.181	-0.499	-0.18
RBBP8 C567 (UniProt Q99708)	0.531	-0.151	0.376	-0.0341
RBM27 C279 (UniProt Q9P2N5)	0.192	-0.0398	-0.114	0.251
RANBP9 C610 (UniProt Q96S59)	-0.018	0.53	-0.0256	0.385
RB1CC1 C282 (UniProt Q8TDY2)	0.101	-0.0378	-0.38	0.133
RB1CC1 C839 (UniProt Q8TDY2)	0.0366	-0.393	0.264	-0.36
RAPGEF1 C474 (UniProt Q13905)	-0.142	0.0906	-0.0236	0.255
RASAL1 C30	0.111	-0.189	0.214	0.1
RHOB C16 (UniProt P62745)	-0.103	-0.325	0.456	-0.0893
RANBP10 C569 (UniProt Q6VN20)	0.143	-0.354	-0.257	-0.289
RBM41 C43 (UniProt Q96IZ5)	0.208	-0.03	-0.00644	0.148
RIOK1 C185 (UniProt Q9BRS2)	-0.18	-0.0534	-0.108	-0.0145
RANBP6 C952 (UniProt O60518)	-0.0963	-0.137	-0.427	-0.0483

Target	log2 mean competition ratio ([1]; 50 µM)	log2 mean competition ratio ([1]; 200 µM)	log2 mean competition ratio ([2]; 50 µM)	log2 mean competition ratio ([2]; 200 µM)
RBL2 C368 (UniProt Q08999)	0.124	0.182	-0.3	-0.175
RASA2 C436 (UniProt Q15283)	-0.109	-0.406	0.231	-0.128
RIF1 C1904 (UniProt Q5UIP0)	-0.109	0.183	-0.102	0.214
RBM12B C837 (UniProt Q8IXT5)	0.0545	0.149	0.0799	0.0625
RCC1L C425 (UniProt Q96I51)	0.00385	0.101	-0.0102	0.00769
RANBP2 C188 (UniProt P49792)	-0.00132	-0.123	-0.181	-0.138
RAP1B C118	-0.265	0.276	-0.609	0.316
RBM5 C187 (UniProt P52756)	-0.0555	-0.0936	-0.356	0.0422
RALBP1 C4 (UniProt Q15311)	-0.299	0.0175	-0.00806	-0.137
RETREG2 C187 (UniProt Q8NC44)	-0.376	0.0373	0.213	0.279
RMND5A C308 (UniProt Q9H871)	0.256	0.195	0.142	0.0227
RBM34 C196 (UniProt P42696)	0.0586	0.09	-0.132	0.232
RAI14 C101 (UniProt Q9P0K7)	-0.177	-0.207	-0.0807	-0.0241
RALGAPB C278 (UniProt Q86X10)	0.326	0.183	0.429	0.0266
RBM48 C258 (UniProt Q5RL73)	-0.191	0.193	-0.0639	0.118
RAI1 C1553 (UniProt Q7Z5J4)	0.165	0.0514	-0.0362	-0.0119
RAI14 C468 (UniProt Q9P0K7)	-0.0216	0.272	0.279	0.174
RILPL1 C47 (UniProt Q5EBL4)	0.0308	-0.00742	-0.0603	-0.0692
RASAL2 C360 (UniProt Q9UJF2)	-0.0797	0.217	-0.421	0.041
RANBP2 C3032 (UniProt P49792)	-0.154	-0.371	0.258	-0.214
RANBP1 C158 (UniProt P43487)	-0.0708	-0.0306	0.0411	0.0654
RANBP2 C3040 (UniProt P49792)	0.117	-0.132	-0.134	-0.0819

Whole records from above. Values in the order: log2 mean competition ratio ([1]; 50 µM)	log2 mean competition ratio ([1]; 200 µM)	log2 mean competition ratio ([2]; 50 µM)	log2 mean competition ratio ([2]; 200 µM)
RMND5A C308 (UniProt Q9H871) reads 0.256	0.195	0.142	0.0227
RILPL1 C47 (UniProt Q5EBL4) reads 0.0308	-0.00742	-0.0603	-0.0692
